# Assay results

The results are deposited in PubChem (AID1159506; NCATS, 2015).

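Genome-wide siRNA knockdown in TC32 Ewing sarcoma cells, comparing luciferase light from an NR0B1-promoter reporter with a CMV-promoter reporter 48 hours after transfection. Each siRNA was applied at 20 nM. A z-score of the log NR0B1-over-CMV signal, less the median of siRNAs with the same seed; more negative means a stronger specific loss of the NR0B1 reporter.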

This is part of the screen; most of the strongest results are not listed here. Sequences are the guide (antisense) strand, without overhang.

| # | Sequence | target gene | seed-corrected z-score |
|---|---|---|---|
| 1 | `UAACUCACCACGUAUGUCC` | TRIM71 | -0.5414 |
| 2 | `AUCUGGGUAGGUUUUGUCG` | TEX26 | 0.8733 |
| 3 | `UCUGUUAUCACCGGGCUUU` | MAP1LC3BP1 | 1.098 |
| 4 | `UCUUUGGACAGCUCUGUGC` | ATP6V0D1 | -0.1448 |
| 5 | `UUGGUACUGAUUGACUACC` | SUPT20H | 1.493 |
| 6 | `UGAUGUUGAACCAAUGCAC` | FABP5P9 | -0.4766 |
| 7 | `AUAAUGGUCACGCGCUUGG` | HIST2H3A | 0.653 |
| 8 | `UGUUGACAAAUUUCUGAAC` | NHP2 | -0.2903 |
| 9 | `AAACCAAUUACUCCAACCC` | GNL3 | -0.1271 |
| 10 | `UCCUCUAAUGUUUCGAUGC` | ZNF131 | -0.6634 |
| 11 | `UAGGUAAAGAGAGCCCAGU` | DBNL | 0.1132 |
| 12 | `UUGAAAGCCGUAUAGAUCA` | HTR5A | 0.5503 |
| 13 | `UGGUGUCACAGUGUACUCC` | MFF | 0.0676 |
| 14 | `AUAGUGAUGUGCUCGUGCC` | SGSM2 | 0.405 |
| 15 | `AUCGGGAUAAAGGAAGUAG` | BDH1 | 1.312 |
| 16 | `UAGUGUUUGGUGAAGGUUG` | ARL2 | 0.4666 |
| 17 | `AACUCGUCCAUAAAAGCCG` | STX3 | 1.247 |
| 18 | `UACAGUUCCAGGUACUUCC` | ADAM33 | 0.186 |
| 19 | `UCUGUGAUCUAGGUAGUAC` | LOC283788 | 0.3868 |
| 20 | `AAUCUUGUAACAUAGAAAG` | C21orf91 | -0.2954 |
| 21 | `UCCUUGGUCACGGCUUGGU` | NOXA1 | -0.3117 |
| 22 | `UCGGUGUACAUUUCAAGCG` | IFT122 | -1.434 |
| 23 | `UCACAGUAAAGUAAUUGUC` | MTX3 | 0.5605 |
| 24 | `UUUAUAUCUUGGUGAAUGC` | ACBD5 | 0.9269 |
| 25 | `UGUCAUCAUAUGUUAAUCC` | ADAM18 | -0.5641 |
| 26 | `UCUUGAUUCAAGUAUGUUG` | CPOX | 0.1435 |
| 27 | `UACCUAUACUUGAACUUCG` | RAG1 | 0.1034 |
| 28 | `UAUCAUCUAUCUGGUAUCG` | MRPS30 | 0.3592 |
| 29 | `UCUUGCUCCACAGGCUAGU` | HBE1 | -1.137 |
| 30 | `AGAACUCUCAUUCUGAUAC` | ACP2 | -0.1885 |
| 31 | `AUUCAUAUUGAUGAACUCC` | MLF1 | -0.0744 |
| 32 | `UAGUGUUGCACCAAAGACA` | PTTG1IP | 1.295 |
| 33 | `AUGGAAUAAAUGAGAGUCC` | ADPRHL2 | -0.7391 |
| 34 | `UUAAAUCCCAGGUAAAUCA` | TOMM7 | 0.4001 |
| 35 | `UUCACACUCUGGUUCUUCC` | C1RL | 0.7362 |
| 36 | `AAAUCCAUGGUAGAGAGUC` | SLC25A42 | -0.3836 |
| 37 | `UUUUCAGCUCGGAAGGUCG` | NARS2 | -1.84 |
| 38 | `AGAGGUCCAUCAGUUGUCC` | PSG5 | 0.5872 |
| 39 | `UCCAUGUGAAACACCAUUG` | KHDC1 | 0.5934 |
| 40 | `UUAUCGACAAGCCUAUUGG` | BEX5 | 0.7554 |
| 41 | `UUAGCUCCAUCUGUAACUG` | BECN1 | 0.9627 |
| 42 | `AUCCGUGUAAGUUAGCUGC` | FRMD7 | 0.2885 |
| 43 | `UUCGUAAUUUGACUAGCUG` | LRRC1 | 0.2791 |
| 44 | `UGCUGUGUCAAUGUCCCGG` | ATP5G1 | -1.785 |
| 45 | `AUAGGGAUUAAAUAGGAAC` | HOXB8 | -0.2374 |
| 46 | `UUUGCAAGCAGAACUGACU` | IL23A | 0.1337 |
| 47 | `UCCAAUCCAACAAUGUCUC` | TTC36 | 0.06625 |
| 48 | `UCCACUUUAAUGGAGUUGC` | CRYGS | 0.3313 |
| 49 | `UUGUCUGUUCCAGUUGCCG` | MYD88 | -1.142 |
| 50 | `UUCUGAACCGUCCUCAUUC` | LOC729218 | -0.3003 |
| 51 | `UUUGUAACACUGAAGAUAC` | TMEM263 | -0.4189 |
| 52 | `UGGUCUUCUAUCUUACUCU` | TCF3 | -1.466 |
| 53 | `AUCCGUAUCACAGUAUCUG` | PDK1 | -0.477 |
| 54 | `UCGUGGAUCAAUUAUGAAG` | PCDH18 | -0.08481 |
| 55 | `UGUCGAAUAAGGGAUGAAC` | ZNF215 | 0.6527 |
| 56 | `UGGUGAUUCAUUUUAUUCC` | C1orf234 | 1.268 |
| 57 | `UCAUCGAUCACCUUCUUCC` | HIVEP3 | 0.2492 |
| 58 | `UGCACUUCAAAUGUCCCUG` | ILF2 | 1.589 |
| 59 | `UUCGAAUCCAUUUUCAACC` | TCF21 | -0.2224 |
| 60 | `UUUAUUUGCUCGUUCACUG` | ATRIP | -0.4991 |
| 61 | `UUCUGAUCAGCUGCUUCGG` | AKAP7 | -0.5091 |
| 62 | `AAAUUCAAAGUUCAUGUCC` | SVIP | 0.7265 |
| 63 | `UUUGUAACCUCCUUUAAGC` | PRTFDC1 | 0.04241 |
| 64 | `UGCUCCAUAAUACUCAUGC` | NLRP5 | 0.1753 |
| 65 | `AUUUGAGUCACAAGAGCCG` | PRR30 | 0.4481 |
| 66 | `UCCACGAUCUGGAACCUCC` | ZNF205 | -0.6907 |
| 67 | `UUACUUGCGAAGAAUAUCC` | ENO4 | -0.7075 |
| 68 | `UGCGUUUUCAGUGUCCAAG` | ITGAM | -0.0348 |
| 69 | `UACGGGUUAGCUUGGUGUC` | PEA15 | 1.488 |
| 70 | `AGCUCUUAUACAGCUCUCC` | ENO3 | -0.4575 |
| 71 | `UUAGAGUCACCGUAAUUAU` | KIF25 | 0.5058 |
| 72 | `UCUAGGACAACAUCGGAGG` | GNL3 | 0.07083 |
| 73 | `UUAACUUUUUGUCCAACUU` | CT55 | 1.176 |
| 74 | `UUACAUCCACGCAACACUC` | DUSP5 | -1.984 |
| 75 | `UUCUUCUCGAAGAAGUUUG` | DUSP9 | -0.3219 |
| 76 | `UGACAGUUUUGAGCACAGC` | PILRB | -1.226 |

The last 9 entries again:

With UGCGUUUUCAGUGUCCAAG against ITGAM the assay gave seed-corrected z-score -0.0348.
With UACGGGUUAGCUUGGUGUC against PEA15 the assay gave seed-corrected z-score 1.488.
With AGCUCUUAUACAGCUCUCC against ENO3 the assay gave seed-corrected z-score -0.4575.
With UUAGAGUCACCGUAAUUAU against KIF25 the assay gave seed-corrected z-score 0.5058.
With UCUAGGACAACAUCGGAGG against GNL3 the assay gave seed-corrected z-score 0.07083.
With UUAACUUUUUGUCCAACUU against CT55 the assay gave seed-corrected z-score 1.176.
With UUACAUCCACGCAACACUC against DUSP5 the assay gave seed-corrected z-score -1.984.
With UUCUUCUCGAAGAAGUUUG against DUSP9 the assay gave seed-corrected z-score -0.3219.
With UGACAGUUUUGAGCACAGC against PILRB the assay gave seed-corrected z-score -1.226.